Data from publication PMC8384837.
This is one part of the list. At the low end of the ranking the order means little.

target: T1, PUM1 PUF domain R1-QFR R2-VFQ R7-NPG S863Q + R864F + Q867R + N899V + Y900F + S1079N + N1080P + E1083G (UniProt Q14671); conditions: yeast three-hybrid, YBZ-1, SC-Leu-His + 0.5 mM 3-AT, 4 days
T1 sequence: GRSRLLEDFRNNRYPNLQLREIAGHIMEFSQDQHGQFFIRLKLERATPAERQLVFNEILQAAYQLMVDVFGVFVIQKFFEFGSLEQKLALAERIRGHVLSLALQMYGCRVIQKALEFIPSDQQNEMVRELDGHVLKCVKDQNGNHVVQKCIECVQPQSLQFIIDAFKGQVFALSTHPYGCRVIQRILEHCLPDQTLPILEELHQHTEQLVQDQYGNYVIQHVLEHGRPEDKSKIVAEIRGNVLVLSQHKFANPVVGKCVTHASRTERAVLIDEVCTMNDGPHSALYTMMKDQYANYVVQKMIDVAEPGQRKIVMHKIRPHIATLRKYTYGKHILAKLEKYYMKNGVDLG

**Q.** “GGCUAGAACUAGUGGAUCCCCCGGCGCCCGGCGGCUCGAGCCCGGGUAAGAUGAAGAUGUCUGCAUGCCGCCGGGCGCCAUGCCUGCAGGUCGACUCUAGAAAACAUG” was tested. Which binding signal (log2 enrichment (interaction score)) did it give?
**A.** Its binding signal (log2 enrichment (interaction score)) is -6.5.

**Q.** For “GGCUAGAACUAGUGGAUCCCCCGGCGCCCGGCGGCUCGAGCCCGGGUAAGUUGUAAUAGUCUGCAUGCCGCCGGGCGCCAUGCCUGCAGGUCGACUCUAGAAAACAUG”, which binding signal (log2 enrichment (interaction score)) is on record?
**A.** Its binding signal (log2 enrichment (interaction score)) is -5.41.

**Q.** How did the binding signal (log2 enrichment (interaction score)) turn out when “GGCUAGAACUAGUGGAUCCCCCGGCGCCCGGCGGCUCGAGCCCGGGUAAGUGUAGGUUGUCUGCAUGCCGCCGGGCGCCAUGCCUGCAGGUCGACUCUAGAAAACAUG” was run?
**A.** Its binding signal (log2 enrichment (interaction score)) is less than -5.93.

**Q.** “GGCUAGAACUAGUGGAUCCCCCGGCGCCCGGCGGCUCGAGCCCGGGUAAGUAGAAACAGUCUGCAUGCCGCCGGGCGCCAUGCCUGCAGGUCGACUCUAGAAAACAUG” was tested. Which binding signal (log2 enrichment (interaction score)) did it give?
**A.** Its binding signal (log2 enrichment (interaction score)) is less than -5.84.

**Q.** For “GGCUAGAACUAGUGGAUCCCCCGGCGCCCGGCGGCUCGAGCCCGGGUAAGUCUAAUUAGUCUGCAUGCCGCCGGGCGCCAUGCCUGCAGGUCGACUCUAGAAAACAUG”, which binding signal (log2 enrichment (interaction score)) is on record?
**A.** The binding signal (log2 enrichment (interaction score)) was -5.6.

**Q.** With “GGCUAGAACUAGUGGAUCCCCCGGCGCCCGGCGGCUCGAGCCCGGGUAAGUUGAAAGAGUCUGCAUGCCGCCGGGCGCCAUGCCUGCAGGUCGACUCUAGAAAACAUG” as the sequence, how does the binding signal (log2 enrichment (interaction score)) read?
**A.** The binding signal (log2 enrichment (interaction score)) was -6.97.

**Q.** How did the binding signal (log2 enrichment (interaction score)) turn out when “GGCUAGAACUAGUGGAUCCCCCGGCGCCCGGCGGCUCGAGCCCGGGUAAGAUAGAGUAGUCUGCAUGCCGCCGGGCGCCAUGCCUGCAGGUCGACUCUAGAAAACAUG” was run?
**A.** The binding signal (log2 enrichment (interaction score)) was -7.12.

**Q.** For “GGCUAGAACUAGUGGAUCCCCCGGCGCCCGGCGGCUCGAGCCCGGGUAAGUUGUACUUGUCUGCAUGCCGCCGGGCGCCAUGCCUGCAGGUCGACUCUAGAAAACAUG”, which binding signal (log2 enrichment (interaction score)) is on record?
**A.** Its binding signal (log2 enrichment (interaction score)) is -6.42.
